# Measurements from patent publication US5670619A, “Bradykinin-antagonists for the treatment of acute pancreatitis” (Hoechst Aktiengesellschaft, priority 1991, dated 1997).
# At least one peptide structure holds a part that was inferred or is arguable (an end, a ring closure or a residue). Square brackets hold non-standard residues; d marks the D form. Peptide text beside a SMILES is read from it. Hyp = O=C(O)[C@@H]1C[C@@H](O)CN1; 2Thi = N[C@@H](Cc1cccs1)C(=O)O
# Tests used:
# [1] = system: hypotension caused by acute pancreatitis; settings: rats; Berg et al., J. Pharmacol. Exp. Ther. 251 (1989) 731-734; cited from earlier work
# [2] = system: caerulein-induced increase of water and Evans blue content in the pancreas; experiment: Comparison of peptide A with the Berg et al. antagonist, given after onset of caerulein infusion in rats; assay type: in vivo; settings: rat; given 10 minutes after the outset of the caerulein infusion; Berg antagonist in a dose 10 times higher than peptide A
# Procedure: Additionally D-Arg^0 -HYP^3 -Thi^5.8 D-Phe^7 -BK disclosed by Berg et al. (see page 1) has been tested in comparision with the peptide A. Both antagonists were given in two groups of rats under identical conditions 10 minutes after the outset of the infusion of caerulein.
structure (smiles),measurement,setting,value
"N=C(N)NCCC[C@@H](N)C(=O)N[C@@H](CCCNC(=N)N)C(=O)N1CCC[C@H]1C(=O)N1C[C@H](O)C[C@H]1C(=O)NCC(=O)N[C@@H](Cc1cccs1)C(=O)N[C@@H](CO)C(=O)N[C@H](Cc1ccccc1)C(=O)N[C@@H](Cc1cccs1)C(=O)N[C@@H](CCCNC(=N)N)C(=O)O [D-Arg^0 -HYP^3 -Thi^5.8 D-Phe^7 -BK, D-Arg-Arg-Pro-Hyp-Gly-Thi-Ser-D-Phe-Thi-Arg, reference compound] (H-[dR]RP[Hyp]G[2Thi]S[dF][2Thi]R-OH)",hypotension caused by development of acute pancreatitis,[1],not influenced
same,increase of Evans blue content in the pancreas,[2],completely ineffective
same,increase of water content in the pancreas,[2],completely ineffective
